Measurements reported in PubChem BioAssay AID686937 (Drosophila RNAi Screening Center, 2013).
The deposit covers about 23,000 reagents; shown is a random part of those with a known target gene and a result. 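Reduced-secretion tags in replicate 1 do not always agree with the z-scores; no criterion for assigning the tags was given.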 Reagents against one gene are numbered here. Names joined by + are all predicted targets of the reagent. Not stated in the record: the amount of reagent.

Purpose: 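Genes in the fly needed for secretion of protein constitutively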 (primary screen)
Cells: Drosophila S2 cells expressing secreted horseradish peroxidase
Reagent: long dsRNA against Drosophila genes
Timing: about 5.5 days (5 days dsRNA, then 12 h reporter induction)
Treatment: reporter expression induced after 5 days of dsRNA, read 12 h later; inducer not stated
Detection: 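Chemiluminescent measurement of peroxidase in the medium 12 h after reporter induction, following 5 days of dsRNA, given as a z-score per plate; higher means more secretion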
Reading the numbers: z-score: higher = more reporter secreted into medium

| Gene | reagent | z-score, replicate 1 | z-score, replicate 2 | z-score, replicate 3 | z-score, replicate 4 | phenotype, replicate 1 |
| --- | --- | --- | --- | --- | --- | --- |
| Sox14 (GeneID 37822) | 1 | 0.52 | 0.53 | – | – | – |
| CG33262 (GeneID 2768975) | 1 | -0.27 | -0.34 | – | – | – |
| Obp99d (GeneID 43496) | 1 | 0.16 | 0.35 | – | – | – |
| su(sable) (GeneID 31012) | 1 | 0.53 | 0.53 | – | – | – |
| Ugt37E1 (GeneID 53512) | 1 | 0.08 | 0.42 | – | – | – |
| RhoGEF4 (GeneID 38806) | 1 | 0.25 | 0.22 | – | – | – |
| Klp59C (GeneID 37671) | 1 | 0.14 | 0.27 | – | – | – |
| CR14033 (GeneID 10178827) | 1 | 0.51 | 0.36 | – | – | – |
| Nt5a (GeneID 38148) | 1 | 0.36 | 0.36 | – | – | – |
| trc (GeneID 40165) | 1 | 0.35 | 0.64 | – | – | – |
| Bx42 (GeneID 31840) | 1 | -5.6 | -3.63 | – | – | reduced secretion |
| HnRNP-K (GeneID 43862) | 1 | 0.28 | -0.03 | 0.39 | 0.19 | – |
| HnRNP-K (GeneID 43862) | 2 | 0.33 | 0.46 | – | – | – |
| mRpL17 (GeneID 38046) | 1 | -0.11 | 0.23 | – | – | – |
| CG11134 (GeneID 32334) | 1 | -1.34 | 0 | – | – | – |
| CG8701 (GeneID 35812) | 1 | 0.26 | 0.32 | – | – | – |
| CG31343 (GeneID 326133) | 1 | 0.35 | -0.04 | – | – | – |
| PH4alphaMP (GeneID 43624) | 1 | 0.24 | 0.15 | – | – | – |
| ppk25 (GeneID 2768722) | 1 | 0.25 | 0.28 | – | – | – |
| Rab6 (GeneID 34636) | 1 | -0.15 | 0.21 | – | – | – |
| Bfc (GeneID 38138) | 1 | 0.3 | 0.12 | – | – | – |
| CG11597 (GeneID 39337) | 1 | 0.7 | 0.46 | – | – | – |
| Ace (GeneID 41625) | 1 | 0.67 | 0.37 | – | – | – |
| Ace (GeneID 41625) | 2 | 0.1 | -0.1 | – | – | – |
| mAcon2 (GeneID 41326) | 1 | 0.45 | 0.56 | – | – | – |
| CG16721 (GeneID 31520) | 1 | 0.46 | 0.46 | – | – | – |
| CG8004 (GeneID 40178) | 1 | 0.17 | 0.24 | – | – | – |
| sordd2 + sordd1 | 1 | 0.27 | 0.66 | – | – | – |
| Nup205 (GeneID 33002) | 1 | -1.7 | -0.48 | – | – | reduced secretion |

No new results follow: an excerpt of the list.
| Gene | reagent | z-score, replicate 1 | z-score, replicate 2 | z-score, replicate 3 | z-score, replicate 4 | phenotype, replicate 1 |
| --- | --- | --- | --- | --- | --- | --- |
| HnRNP-K (GeneID 43862) | 1 | 0.28 | -0.03 | 0.39 | 0.19 | – |
| HnRNP-K (GeneID 43862) | 2 | 0.33 | 0.46 | – | – | – |
| mRpL17 (GeneID 38046) | 1 | -0.11 | 0.23 | – | – | – |
| CG11134 (GeneID 32334) | 1 | -1.34 | 0 | – | – | – |

Additional reagents:
| Gene | reagent | z-score, replicate 1 | z-score, replicate 2 | z-score, replicate 3 | z-score, replicate 4 | phenotype, replicate 1 |
| --- | --- | --- | --- | --- | --- | --- |
| RpL18 (GeneID 38794) | 1 | 0.64 | 0.39 | -0.85 | -0.24 | reduced secretion |
| RpL18 (GeneID 38794) | 2 | -1.13 | -2.71 | – | – | reduced secretion |
| CG8945 (GeneID 32693) | 1 | 0.16 | 0.34 | – | – | – |
| CG8945 (GeneID 32693) | 2 | 0.34 | 0.4 | – | – | – |
| CG7668 (GeneID 40190) | 1 | 0.23 | 0.04 | – | – | – |
| Phae1 (GeneID 34637) | 1 | 0.44 | 0.64 | – | – | – |
| prim (GeneID 36814) | 1 | 0.44 | 0.3 | – | – | – |
| CG42810 (GeneID 34764) | 1 | 0.22 | 0.33 | – | – | – |
| Sgs8 (GeneID 39285) | 1 | 0.37 | 0.25 | – | – | – |
| CG3793 (GeneID 34928) | 1 | 0.35 | 0.35 | – | – | – |
| RpS24 (GeneID 37589) | 1 | -6.98 | -4.02 | 0.41 | 0.28 | reduced secretion |
| Act42A (GeneID 35526) | 1 | 0.04 | -0.06 | – | – | – |
| SH3PX1 (GeneID 39136) | 1 | 0.41 | 0.06 | – | – | – |
| GatB (GeneID 42861) | 1 | 0.4 | 0.34 | – | – | – |
| CG10333 (GeneID 35112) | 1 | -1.51 | -0.64 | – | – | reduced secretion |
| Oga (GeneID 42518) | 1 | 0.36 | 0.33 | – | – | – |
| CheB38c (GeneID 35346) | 1 | 0.44 | 0.29 | – | – | – |
| CG7365 (GeneID 40200) | 1 | 0.46 | 0.17 | – | – | – |
| Polr3B (GeneID 36289) | 1 | -0.2 | -0.5 | – | – | – |
| stac (GeneID 43002) | 1 | -0.83 | 0.31 | – | – | – |
| stac (GeneID 43002) | 2 | 0.29 | 0.34 | – | – | – |
| stac (GeneID 43002) | 3 | 0.25 | 1.01 | – | – | – |
| Hmgs (GeneID 44154) | 1 | -1.91 | -1.15 | – | – | reduced secretion |
| Dic1 (GeneID 41640) | 1 | 0.22 | -0.06 | – | – | – |
| CG5742 (GeneID 37072) | 1 | 0.17 | 0.19 | – | – | – |
| CG13511 (GeneID 37597) | 1 | 0.04 | 0.44 | – | – | – |
| CG13064 (GeneID 2768963) | 1 | 0.31 | 0.21 | – | – | – |
